Consider one compound from US11077159B2, “Compositions from halophyte plants and methods of use thereof” (KHALIFA UNIVERSITY OF SCIENCE AND TECHNOLOGY, priority 2017, dated 2021).

Each structure is given as a SMILES string.

The test system of this test is IL-8 release of NHEK. The test is described as follows: IL-8 release of NHEK stimulated by PMA (ELISA), anti-inflammatory. Type of test: cell-based, human. The following applies: 10^−9M. From the text: The matrix metalloproteinase-1 (MMP-1) assay using a specific ELISA kit was used to evaluate anti-aging properties. The migration/proliferation of NHEK using kinetic image analysis of the wound recovery was used to evaluate cell renewal properties. The IL-8 release on NHEK stimulated by PMA using a specific ELISA kit was used to evaluate anti-inflammatory properties.

What is called inhibition is the percentage by which the read-out fell short of the control. A higher inhibition goes with a response far below the control.

For the compound `CN[C@@H]1C[C@H]2O[C@@](C)([C@@H]1OC)n1c3ccccc3c3c4c(c5c6ccccc6n2c5c31)C(=O)NC4` [Staurosporine], the “IL-8 % Inhibition” value was found to be 48%. Where the note is “Homo sapiens, NHEK”, this compound returned an inhibition at 0.001 µM of 50%.
